This note sets out measurements from PMC10643145, “Structure and activation of the RING E3 ubiquitin ligase TRIM72 on the membrane” (Nature Structural & Molecular Biology, 2023).

Assay [1] concerns the target mouse TRIM72 ΔH3 (deletion of residues 272–281) (mouse) (UniProt Q1XH17). Put plainly: cross-linking; time course; preincubation with small liposomes (30 mol% DPPS, 70 mol% DOPC) in DPBS at room temperature for 30 min, then 20 μM BMOE; SDS-PAGE, Coomassie; both purified.
Assay [2] deals with mouse TRIM72 R^3E (R368E, R369E, R371E) (mouse) (UniProt Q1XH17). The description is as above.
Assay [3] addresses mouse TRIM72 K^2D (K460D, K462D) (mouse) (UniProt Q1XH17). The description is as above.
Assay [4] has as its target mouse TRIM72 wild type (tripartite motif-containing protein 72) (mouse) (UniProt Q1XH17). Nature of the assay: cross-linking; oxidizing conditions by the addition of H2O2, without PS liposomes; higher-order oligomers of the dimer; both purified.

Where a chain is given by its changes, count along the chain named. Numbers in names are those of the source. These are yes or no findings as the source states them, for the method shown. Some results given as binding are weak or reduced against the parent protein; the word gives no strength.

B1: mouse TRIM72 ΔH3 (deletion of residues 272–281) (protein, UniProt Q1XH17)
chain: MSAAPGLLRQELSCPLCLQLFDAPVTAECGHSFCRACLIRVAGEPAADGTVACPCCQAPTRPQALSTNLQLSRLVEGLAQVPQGHCEEHLDPLSIYCEQDRTLVCGVCASLGSHRGHRLLPAAEAQARLKTQLPQQKMQLQEACMRKEKTVAVLEHQLVEVEETVRQFRGAVGEQLGKMRMFLAALESSLDREAERVRGDAGVALRRELSSLNSYLEQLRQMEKVLEEVADKPQTEFLMKFCLVTSRLQKILSESPPPARLDIQLPVISDDRALMPALEELTFDPSSAHPSLVVSSSGRRVECSDQKAPPAGEDTRQFDKAVAVVAQQLLSQGEHYWEVEVGDKPRWALGVMAADASRRGRLHAVPSQGLWLLGLRDGKILEAHVEAKEPRALRTPERPPARIGLYLSFADGVLAFYDASNPDVLTPIFSFHERLPGPVYPIFDVCWHDKGKNAQPLLLVGPEQEQA
Consider B1, for which the binding result in assay [1] is reported as “binds weakly”.

B2: mouse TRIM72 R^3E (R368E, R369E, R371E) (protein, UniProt Q1XH17 1-477)
chain: MSAAPGLLRQELSCPLCLQLFDAPVTAECGHSFCRACLIRVAGEPAADGTVACPCCQAPTRPQALSTNLQLSRLVEGLAQVPQGHCEEHLDPLSIYCEQDRTLVCGVCASLGSHRGHRLLPAAEAQARLKTQLPQQKMQLQEACMRKEKTVAVLEHQLVEVEETVRQFRGAVGEQLGKMRMFLAALESSLDREAERVRGDAGVALRRELSSLNSYLEQLRQMEKVLEEVADKPQTEFLMKFCLVTSRLQKILSESPPPARLDIQLPVISDDFKFQVWKKMFRALMPALEELTFDPSSAHPSLVVSSSGRRVECSDQKAPPAGEDTRQFDKAVAVVAQQLLSQGEHYWEVEVGDKPRWALGVMAADASEEGELHAVPSQGLWLLGLRDGKILEAHVEAKEPRALRTPERPPARIGLYLSFADGVLAFYDASNPDVLTPIFSFHERLPGPVYPIFDVCWHDKGKNAQPLLLVGPEQEQA
In the case of B2, in assay [2], the binding result is reported as “binds weakly”.

B3: mouse TRIM72 K^2D (K460D, K462D) (protein, UniProt Q1XH17 1-477)
chain: B2 chain with E368R, E369R, E371R, K460D, K462D
Turning to B3, the binding result in assay [3] is “binds weakly”.

B4: mouse TRIM72 wild type (tripartite motif-containing protein 72) (natural protein, UniProt Q1XH17 1-477, looked up)
chain: B2 chain with E368R, E369R, E371R
notes: TRIM72 (MG53), Mus musculus, wild type, full length; Tight dimer in solution by SEC-MALS; higher-order assembly only on PS liposomes; also called TRIM72 WT; MG53; source: E. coli BL21(DE3), purified (AC, IEX, SEC); not shown: His6, N-terminal, cleaved; MBP, N-terminal, cleaved
Take B4: the binding result in assay [4] is on record as “no binding (condition: without PS liposomes)”.
